# ± gives the standard deviation of the averaged measurements. Only a part is listed here, and it is no random draw.
# Tests used:
# Assay in all cases: NP40-soluble protein abundance relative to vehicle (solubility fold change) (ratio); higher = more soluble protein in presence of ATP
# ABHD6 = target: T1, ABHD6 (UniProt Q9BV23)
# T1 sequence (whole entry): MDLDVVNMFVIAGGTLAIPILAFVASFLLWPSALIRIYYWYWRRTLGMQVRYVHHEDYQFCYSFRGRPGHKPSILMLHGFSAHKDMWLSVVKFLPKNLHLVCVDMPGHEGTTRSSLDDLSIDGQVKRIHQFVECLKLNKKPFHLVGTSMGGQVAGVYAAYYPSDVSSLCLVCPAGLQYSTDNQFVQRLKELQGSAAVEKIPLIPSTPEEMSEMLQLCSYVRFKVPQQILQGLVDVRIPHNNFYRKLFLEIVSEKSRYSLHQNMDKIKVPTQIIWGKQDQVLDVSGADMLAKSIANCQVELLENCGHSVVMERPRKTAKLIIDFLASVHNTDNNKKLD
# Outline: (§1)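 Jurkat crude lysate prepared with a Dounce homogeniser was treated at eight concentrations spanning 0.1 to 10 mM, 10 min at room temperature then 3 min at 37 °C. Solubilisation with 0.8% NP40 and benzonase and ultracentrifugation preceded TMT labelling of the supernatant for LC-MS/MS. Fold change against the detergent-processed vehicle was determined per replicate from vsn-normalised intensities, across three independent experiments.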
# ADAT1 = target: T2, ADAT1 (UniProt Q9BUB4)
# T2 sequence (whole entry): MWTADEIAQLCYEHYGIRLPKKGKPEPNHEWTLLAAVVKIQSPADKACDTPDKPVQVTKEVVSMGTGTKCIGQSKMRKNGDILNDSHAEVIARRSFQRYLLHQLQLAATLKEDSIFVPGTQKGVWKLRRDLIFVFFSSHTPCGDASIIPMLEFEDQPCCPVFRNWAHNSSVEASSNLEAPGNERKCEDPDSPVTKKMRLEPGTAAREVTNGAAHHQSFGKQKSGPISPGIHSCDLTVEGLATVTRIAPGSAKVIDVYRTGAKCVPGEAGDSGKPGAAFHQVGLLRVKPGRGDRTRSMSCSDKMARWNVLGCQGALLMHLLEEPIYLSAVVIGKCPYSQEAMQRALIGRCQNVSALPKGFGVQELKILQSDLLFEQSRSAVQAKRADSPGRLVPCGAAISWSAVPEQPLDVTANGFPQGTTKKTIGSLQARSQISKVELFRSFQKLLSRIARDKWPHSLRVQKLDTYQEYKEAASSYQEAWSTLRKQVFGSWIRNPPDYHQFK
# Outline: as §1
# DNAJC2 = target: T3, DNAJC2 (UniProt Q99543)
# T3 sequence (whole entry): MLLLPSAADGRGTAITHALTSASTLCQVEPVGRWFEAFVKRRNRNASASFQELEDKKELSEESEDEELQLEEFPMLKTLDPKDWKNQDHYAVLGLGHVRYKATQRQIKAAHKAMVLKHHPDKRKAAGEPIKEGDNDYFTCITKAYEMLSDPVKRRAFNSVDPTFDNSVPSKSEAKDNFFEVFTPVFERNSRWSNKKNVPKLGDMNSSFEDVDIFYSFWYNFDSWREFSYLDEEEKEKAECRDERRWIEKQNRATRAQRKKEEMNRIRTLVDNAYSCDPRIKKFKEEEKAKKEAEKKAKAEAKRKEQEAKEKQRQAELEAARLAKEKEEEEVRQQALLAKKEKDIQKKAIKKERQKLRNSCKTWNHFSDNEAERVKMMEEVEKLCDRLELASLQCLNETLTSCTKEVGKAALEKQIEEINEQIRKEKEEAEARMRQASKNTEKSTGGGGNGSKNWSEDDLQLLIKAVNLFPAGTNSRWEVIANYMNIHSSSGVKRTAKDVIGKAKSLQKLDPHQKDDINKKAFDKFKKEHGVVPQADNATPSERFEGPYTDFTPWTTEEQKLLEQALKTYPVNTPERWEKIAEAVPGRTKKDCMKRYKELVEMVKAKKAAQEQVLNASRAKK
# Outline: as §1
# DOHH = target: T4, DOHH (UniProt Q9BU89)
# T4 sequence (whole entry): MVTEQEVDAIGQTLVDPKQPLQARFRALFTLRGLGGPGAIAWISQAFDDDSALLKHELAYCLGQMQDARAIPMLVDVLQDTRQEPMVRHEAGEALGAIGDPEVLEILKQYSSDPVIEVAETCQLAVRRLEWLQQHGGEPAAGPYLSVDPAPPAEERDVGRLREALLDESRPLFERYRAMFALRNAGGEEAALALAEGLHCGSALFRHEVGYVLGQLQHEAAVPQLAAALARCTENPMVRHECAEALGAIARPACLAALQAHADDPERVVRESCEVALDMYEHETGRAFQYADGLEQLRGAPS
# Outline: as §1
# EFHD1 = target: T5, EFHD1 (UniProt Q9BUP0)
# T5 sequence (whole entry): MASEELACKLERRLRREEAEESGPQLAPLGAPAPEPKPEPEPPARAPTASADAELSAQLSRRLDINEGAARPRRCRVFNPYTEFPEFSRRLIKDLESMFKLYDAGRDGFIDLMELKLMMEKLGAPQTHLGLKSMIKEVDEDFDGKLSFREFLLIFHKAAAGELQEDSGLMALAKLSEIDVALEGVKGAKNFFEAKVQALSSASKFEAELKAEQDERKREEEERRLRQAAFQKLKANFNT
# Outline: as §1
# FUNDC2 = target: T6, FUNDC2 (UniProt Q9BWH2)
# T6 sequence (whole entry): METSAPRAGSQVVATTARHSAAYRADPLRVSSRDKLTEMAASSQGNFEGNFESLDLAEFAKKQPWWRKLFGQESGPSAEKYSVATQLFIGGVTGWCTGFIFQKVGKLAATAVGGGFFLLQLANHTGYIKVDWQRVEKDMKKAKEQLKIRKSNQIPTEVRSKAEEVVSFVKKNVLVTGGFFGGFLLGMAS
# Outline: as §1
# IFIH1 = target: T7, IFIH1 (UniProt Q9BYX4)
# T7 sequence (whole entry): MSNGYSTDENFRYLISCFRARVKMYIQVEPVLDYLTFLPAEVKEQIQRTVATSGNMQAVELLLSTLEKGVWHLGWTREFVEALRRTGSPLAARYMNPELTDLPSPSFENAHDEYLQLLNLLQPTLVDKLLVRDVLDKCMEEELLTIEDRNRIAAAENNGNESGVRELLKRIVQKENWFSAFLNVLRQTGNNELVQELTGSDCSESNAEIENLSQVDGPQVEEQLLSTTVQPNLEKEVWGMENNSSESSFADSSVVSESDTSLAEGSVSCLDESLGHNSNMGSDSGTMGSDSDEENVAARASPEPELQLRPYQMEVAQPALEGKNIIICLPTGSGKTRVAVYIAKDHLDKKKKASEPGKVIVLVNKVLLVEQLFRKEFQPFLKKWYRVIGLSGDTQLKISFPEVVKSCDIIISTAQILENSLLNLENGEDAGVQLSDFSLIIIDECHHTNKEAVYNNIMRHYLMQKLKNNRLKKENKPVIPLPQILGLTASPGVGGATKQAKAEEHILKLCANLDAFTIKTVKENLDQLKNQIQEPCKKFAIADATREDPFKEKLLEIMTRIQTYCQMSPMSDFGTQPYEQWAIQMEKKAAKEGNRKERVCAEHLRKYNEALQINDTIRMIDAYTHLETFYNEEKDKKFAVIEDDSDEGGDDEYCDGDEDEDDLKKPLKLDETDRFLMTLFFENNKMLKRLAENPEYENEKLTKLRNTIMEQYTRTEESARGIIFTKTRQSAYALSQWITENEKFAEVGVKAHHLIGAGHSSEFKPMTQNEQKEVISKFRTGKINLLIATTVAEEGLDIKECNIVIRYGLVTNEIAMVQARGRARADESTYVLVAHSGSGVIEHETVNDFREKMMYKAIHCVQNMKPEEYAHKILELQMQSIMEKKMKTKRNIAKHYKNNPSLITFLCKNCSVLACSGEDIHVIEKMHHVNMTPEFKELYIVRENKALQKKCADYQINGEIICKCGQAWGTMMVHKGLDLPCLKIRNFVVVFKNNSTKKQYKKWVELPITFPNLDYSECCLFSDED
# Outline: as §1
smiles,measurement,setting,value
Nc1ncnc2c1ncn2[C@@H]1O[C@H](COP(=O)(O)OP(=O)(O)OP(=O)(O)O)[C@@H](O)[C@H]1O [adenosine triphosphate],NP40-soluble protein abundance,ABHD6; concentration: 1mM,1.04 ± 0.084
same,NP40-soluble protein abundance,ABHD6; concentration: 2mM,1.11 ± 0.042
same,NP40-soluble protein abundance,ABHD6; concentration: 4mM,0.975 ± 0.051
same,NP40-soluble protein abundance,ABHD6; concentration: 6mM,0.952 ± 0.038
same,NP40-soluble protein abundance,ABHD6; concentration: 8mM,1.1 ± 0.15
same,NP40-soluble protein abundance,ABHD6; concentration: 10mM,0.972 ± 0.075
same,NP40-soluble protein abundance,ADAT1; concentration: 1mM,1.05 ± 0.087
same,NP40-soluble protein abundance,ADAT1; concentration: 2mM,1.08 ± 0.06
same,NP40-soluble protein abundance,ADAT1; concentration: 4mM,1.12 ± 0.15
same,NP40-soluble protein abundance,ADAT1; concentration: 6mM,1.03 ± 0.12
same,NP40-soluble protein abundance,ADAT1; concentration: 8mM,1.04 ± 0.11
same,NP40-soluble protein abundance,ADAT1; concentration: 10mM,1.05 ± 0.095
same,NP40-soluble protein abundance,DNAJC2; concentration: 1mM,0.986 ± 0.046
same,NP40-soluble protein abundance,DNAJC2; concentration: 2mM,1 ± 0.012
same,NP40-soluble protein abundance,DNAJC2; concentration: 4mM,0.9869 ± 0.008
same,NP40-soluble protein abundance,DNAJC2; concentration: 6mM,1.011 ± 0.0035
same,NP40-soluble protein abundance,DNAJC2; concentration: 8mM,0.962 ± 0.018
same,NP40-soluble protein abundance,DNAJC2; concentration: 10mM,0.987 ± 0.022
same,NP40-soluble protein abundance,DOHH; concentration: 1mM,0.977 ± 0.071
same,NP40-soluble protein abundance,DOHH; concentration: 2mM,0.976 ± 0.027
same,NP40-soluble protein abundance,DOHH; concentration: 4mM,0.997 ± 0.033
same,NP40-soluble protein abundance,DOHH; concentration: 6mM,0.948 ± 0.062
same,NP40-soluble protein abundance,DOHH; concentration: 8mM,0.963 ± 0.024
same,NP40-soluble protein abundance,DOHH; concentration: 10mM,0.894 ± 0.06
same,NP40-soluble protein abundance,EFHD1; concentration: 1mM,0.82 ± 0.043
same,NP40-soluble protein abundance,EFHD1; concentration: 2mM,0.831 ± 0.018
same,NP40-soluble protein abundance,EFHD1; concentration: 4mM,0.878 ± 0.02
same,NP40-soluble protein abundance,EFHD1; concentration: 6mM,0.897 ± 0.014
same,NP40-soluble protein abundance,EFHD1; concentration: 8mM,0.95 ± 0.018
same,NP40-soluble protein abundance,EFHD1; concentration: 10mM,0.9 ± 0.09
same,NP40-soluble protein abundance,FUNDC2; concentration: 1mM,0.885 ± 0.033
same,NP40-soluble protein abundance,FUNDC2; concentration: 2mM,0.913 ± 0.016
same,NP40-soluble protein abundance,FUNDC2; concentration: 4mM,0.899 ± 0.061
same,NP40-soluble protein abundance,FUNDC2; concentration: 6mM,0.929 ± 0.058
same,NP40-soluble protein abundance,FUNDC2; concentration: 8mM,0.876 ± 0.044
same,NP40-soluble protein abundance,FUNDC2; concentration: 10mM,0.88 ± 0.016
same,NP40-soluble protein abundance,IFIH1; concentration: 1mM,0.9729 ± 0.0016
same,NP40-soluble protein abundance,IFIH1; concentration: 2mM,0.9913 ± 0.0064
same,NP40-soluble protein abundance,IFIH1; concentration: 4mM,1.021 ± 0.0022
same,NP40-soluble protein abundance,IFIH1; concentration: 6mM,0.9856 ± 0.0031
same,NP40-soluble protein abundance,IFIH1; concentration: 8mM,0.961 ± 0.022
same,NP40-soluble protein abundance,IFIH1; concentration: 10mM,1.04 ± 0.024

# Quoted at random: three entries already listed.
smiles,measurement,setting,value
Nc1ncnc2c1ncn2[C@@H]1O[C@H](COP(=O)(O)OP(=O)(O)OP(=O)(O)O)[C@@H](O)[C@H]1O [adenosine triphosphate],NP40-soluble protein abundance,FUNDC2; concentration: 8mM,0.876 ± 0.044
same,NP40-soluble protein abundance,DNAJC2; concentration: 6mM,1.011 ± 0.0035
same,NP40-soluble protein abundance,DOHH; concentration: 2mM,0.976 ± 0.027
